From the supplement of paper PMC10849652
This is one part of the list.

Chains of the proteins cited; added tags and fusions are not shown. Lines headed by an entry give the natural chain unless they say otherwise; changes in a name come on top.
UniProt Q68DH5: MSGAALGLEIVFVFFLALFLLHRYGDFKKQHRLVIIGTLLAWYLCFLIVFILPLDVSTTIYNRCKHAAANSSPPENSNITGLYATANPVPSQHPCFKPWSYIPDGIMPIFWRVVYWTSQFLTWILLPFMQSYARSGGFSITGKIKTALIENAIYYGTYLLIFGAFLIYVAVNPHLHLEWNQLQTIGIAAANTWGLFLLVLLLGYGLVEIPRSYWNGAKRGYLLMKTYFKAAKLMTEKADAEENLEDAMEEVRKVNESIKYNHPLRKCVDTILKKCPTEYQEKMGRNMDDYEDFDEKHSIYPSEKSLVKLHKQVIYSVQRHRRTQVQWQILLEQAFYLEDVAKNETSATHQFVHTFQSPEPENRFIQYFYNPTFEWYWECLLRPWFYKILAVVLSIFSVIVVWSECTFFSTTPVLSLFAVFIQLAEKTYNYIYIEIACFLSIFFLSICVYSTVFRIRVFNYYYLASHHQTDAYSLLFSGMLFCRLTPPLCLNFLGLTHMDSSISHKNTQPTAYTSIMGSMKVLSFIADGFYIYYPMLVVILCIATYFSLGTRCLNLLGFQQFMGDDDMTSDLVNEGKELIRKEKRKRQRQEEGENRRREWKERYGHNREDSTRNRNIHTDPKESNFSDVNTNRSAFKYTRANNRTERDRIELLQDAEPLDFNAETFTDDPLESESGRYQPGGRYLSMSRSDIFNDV
UniProt Q9UK45: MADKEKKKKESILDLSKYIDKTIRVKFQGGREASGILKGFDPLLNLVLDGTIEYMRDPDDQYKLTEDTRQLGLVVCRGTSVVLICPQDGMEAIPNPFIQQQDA
UniProt Q8IWU2: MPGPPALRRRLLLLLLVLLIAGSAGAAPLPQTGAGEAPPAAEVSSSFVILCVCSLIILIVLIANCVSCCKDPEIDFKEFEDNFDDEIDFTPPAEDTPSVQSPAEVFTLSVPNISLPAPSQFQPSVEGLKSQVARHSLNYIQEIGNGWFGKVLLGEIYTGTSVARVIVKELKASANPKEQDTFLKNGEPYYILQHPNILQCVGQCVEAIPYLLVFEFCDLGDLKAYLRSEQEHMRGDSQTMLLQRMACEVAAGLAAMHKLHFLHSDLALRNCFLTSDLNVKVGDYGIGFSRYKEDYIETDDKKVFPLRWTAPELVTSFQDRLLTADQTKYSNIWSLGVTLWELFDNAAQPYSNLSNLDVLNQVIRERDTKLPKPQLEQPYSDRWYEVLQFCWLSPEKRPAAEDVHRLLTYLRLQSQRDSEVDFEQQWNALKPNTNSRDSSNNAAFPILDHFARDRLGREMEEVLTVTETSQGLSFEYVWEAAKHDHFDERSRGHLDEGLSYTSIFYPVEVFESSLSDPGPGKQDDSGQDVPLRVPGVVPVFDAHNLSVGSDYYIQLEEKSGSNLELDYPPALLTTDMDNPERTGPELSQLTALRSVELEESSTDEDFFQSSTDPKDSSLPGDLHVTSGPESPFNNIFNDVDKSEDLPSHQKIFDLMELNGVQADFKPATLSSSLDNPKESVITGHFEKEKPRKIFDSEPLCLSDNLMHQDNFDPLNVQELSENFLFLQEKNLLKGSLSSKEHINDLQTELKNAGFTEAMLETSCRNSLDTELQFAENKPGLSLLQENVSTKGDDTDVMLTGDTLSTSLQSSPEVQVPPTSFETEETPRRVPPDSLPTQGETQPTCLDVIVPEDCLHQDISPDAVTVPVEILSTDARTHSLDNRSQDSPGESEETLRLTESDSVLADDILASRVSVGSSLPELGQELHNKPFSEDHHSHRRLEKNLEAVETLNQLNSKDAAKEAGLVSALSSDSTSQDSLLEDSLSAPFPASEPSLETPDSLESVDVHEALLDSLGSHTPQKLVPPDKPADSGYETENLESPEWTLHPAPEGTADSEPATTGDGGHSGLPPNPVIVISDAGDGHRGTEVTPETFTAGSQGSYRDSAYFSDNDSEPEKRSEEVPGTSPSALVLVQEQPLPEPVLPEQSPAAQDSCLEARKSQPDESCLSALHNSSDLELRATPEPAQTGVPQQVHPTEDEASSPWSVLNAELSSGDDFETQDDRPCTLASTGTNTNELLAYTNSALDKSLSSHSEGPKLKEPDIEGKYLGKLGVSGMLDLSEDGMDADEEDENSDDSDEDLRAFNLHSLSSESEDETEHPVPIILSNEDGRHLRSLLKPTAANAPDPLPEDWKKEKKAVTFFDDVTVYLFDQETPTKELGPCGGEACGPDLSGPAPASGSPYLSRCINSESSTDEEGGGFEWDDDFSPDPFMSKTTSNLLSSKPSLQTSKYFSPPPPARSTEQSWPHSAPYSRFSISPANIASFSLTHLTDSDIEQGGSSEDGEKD
UniProt P09960: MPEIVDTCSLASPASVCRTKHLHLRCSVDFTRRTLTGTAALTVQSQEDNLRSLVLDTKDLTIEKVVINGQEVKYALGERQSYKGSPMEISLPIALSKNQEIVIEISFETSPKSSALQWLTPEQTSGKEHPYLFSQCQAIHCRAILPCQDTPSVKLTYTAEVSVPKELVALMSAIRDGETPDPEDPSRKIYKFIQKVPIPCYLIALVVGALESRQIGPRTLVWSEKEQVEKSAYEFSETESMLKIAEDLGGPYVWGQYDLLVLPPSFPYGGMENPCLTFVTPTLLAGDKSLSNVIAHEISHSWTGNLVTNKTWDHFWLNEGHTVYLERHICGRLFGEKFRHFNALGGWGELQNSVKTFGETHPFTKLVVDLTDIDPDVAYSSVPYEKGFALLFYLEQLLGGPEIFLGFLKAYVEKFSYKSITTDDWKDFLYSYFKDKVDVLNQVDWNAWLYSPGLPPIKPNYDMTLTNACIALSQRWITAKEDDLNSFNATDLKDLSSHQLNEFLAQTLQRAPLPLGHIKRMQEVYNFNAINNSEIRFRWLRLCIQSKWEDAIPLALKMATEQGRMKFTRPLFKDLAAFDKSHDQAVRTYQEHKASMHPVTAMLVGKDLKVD
UniProt Q3MHD2: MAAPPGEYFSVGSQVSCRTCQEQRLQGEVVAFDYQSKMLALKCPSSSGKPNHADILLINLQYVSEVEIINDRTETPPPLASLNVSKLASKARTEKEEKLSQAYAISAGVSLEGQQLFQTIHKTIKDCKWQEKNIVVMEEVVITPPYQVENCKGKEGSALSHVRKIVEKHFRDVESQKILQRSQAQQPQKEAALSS
UniProt O15116: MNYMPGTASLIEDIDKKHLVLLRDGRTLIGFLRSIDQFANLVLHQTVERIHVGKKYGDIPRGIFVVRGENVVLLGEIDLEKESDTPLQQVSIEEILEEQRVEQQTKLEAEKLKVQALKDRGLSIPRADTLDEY
UniProt Q96GY3: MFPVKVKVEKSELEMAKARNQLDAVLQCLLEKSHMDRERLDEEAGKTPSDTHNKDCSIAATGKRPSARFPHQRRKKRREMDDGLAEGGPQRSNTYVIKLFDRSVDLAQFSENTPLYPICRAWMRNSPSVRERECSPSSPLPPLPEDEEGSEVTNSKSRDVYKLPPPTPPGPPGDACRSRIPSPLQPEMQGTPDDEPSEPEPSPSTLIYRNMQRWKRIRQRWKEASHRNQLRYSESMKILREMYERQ
UniProt Q15334: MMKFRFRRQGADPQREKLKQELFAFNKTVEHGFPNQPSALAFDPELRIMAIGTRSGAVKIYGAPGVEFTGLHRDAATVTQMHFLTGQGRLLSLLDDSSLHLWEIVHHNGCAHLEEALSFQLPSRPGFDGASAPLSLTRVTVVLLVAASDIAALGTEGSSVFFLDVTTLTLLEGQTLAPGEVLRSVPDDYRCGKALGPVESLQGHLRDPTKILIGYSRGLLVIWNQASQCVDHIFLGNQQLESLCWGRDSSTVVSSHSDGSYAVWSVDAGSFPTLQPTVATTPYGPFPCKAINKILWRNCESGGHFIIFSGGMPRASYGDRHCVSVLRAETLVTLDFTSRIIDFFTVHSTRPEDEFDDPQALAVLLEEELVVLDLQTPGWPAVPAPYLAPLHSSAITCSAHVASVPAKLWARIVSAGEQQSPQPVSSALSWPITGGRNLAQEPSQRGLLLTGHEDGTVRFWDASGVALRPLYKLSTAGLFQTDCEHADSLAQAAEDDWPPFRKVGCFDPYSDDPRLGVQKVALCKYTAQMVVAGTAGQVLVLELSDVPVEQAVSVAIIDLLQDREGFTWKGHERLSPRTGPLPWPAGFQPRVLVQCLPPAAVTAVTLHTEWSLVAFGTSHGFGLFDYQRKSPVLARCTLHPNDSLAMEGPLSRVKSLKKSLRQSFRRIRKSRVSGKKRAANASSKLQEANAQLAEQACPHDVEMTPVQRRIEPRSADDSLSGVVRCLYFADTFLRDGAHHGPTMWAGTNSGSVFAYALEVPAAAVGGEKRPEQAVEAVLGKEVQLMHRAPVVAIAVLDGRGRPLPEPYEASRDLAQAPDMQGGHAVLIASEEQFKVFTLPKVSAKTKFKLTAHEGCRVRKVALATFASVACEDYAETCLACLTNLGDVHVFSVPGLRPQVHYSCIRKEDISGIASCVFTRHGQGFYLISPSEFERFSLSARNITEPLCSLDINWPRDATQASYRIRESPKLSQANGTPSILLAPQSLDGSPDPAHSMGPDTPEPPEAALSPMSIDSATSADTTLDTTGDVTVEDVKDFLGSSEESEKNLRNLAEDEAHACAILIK
UniProt Q9H089: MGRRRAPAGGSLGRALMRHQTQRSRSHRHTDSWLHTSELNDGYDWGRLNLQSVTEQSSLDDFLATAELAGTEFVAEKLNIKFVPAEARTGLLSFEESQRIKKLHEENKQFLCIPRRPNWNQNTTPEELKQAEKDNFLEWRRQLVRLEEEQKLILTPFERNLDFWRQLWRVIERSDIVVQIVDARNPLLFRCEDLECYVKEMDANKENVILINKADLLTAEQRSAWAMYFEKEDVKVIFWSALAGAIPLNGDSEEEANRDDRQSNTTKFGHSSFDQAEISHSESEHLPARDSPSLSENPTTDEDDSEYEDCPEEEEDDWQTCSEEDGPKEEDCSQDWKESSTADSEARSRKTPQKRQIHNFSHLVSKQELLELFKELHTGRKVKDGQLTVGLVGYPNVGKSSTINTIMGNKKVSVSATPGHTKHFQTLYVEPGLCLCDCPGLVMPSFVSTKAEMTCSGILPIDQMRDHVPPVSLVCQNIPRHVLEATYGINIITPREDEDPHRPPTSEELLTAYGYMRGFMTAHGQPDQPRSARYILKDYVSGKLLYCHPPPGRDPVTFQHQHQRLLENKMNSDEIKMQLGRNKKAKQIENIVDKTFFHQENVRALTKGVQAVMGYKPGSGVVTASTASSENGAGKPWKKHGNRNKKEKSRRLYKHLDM
UniProt P62312: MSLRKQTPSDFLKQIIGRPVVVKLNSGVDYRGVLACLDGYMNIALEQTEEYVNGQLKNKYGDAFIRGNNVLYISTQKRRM
UniProt P07195, whole entry, looked up: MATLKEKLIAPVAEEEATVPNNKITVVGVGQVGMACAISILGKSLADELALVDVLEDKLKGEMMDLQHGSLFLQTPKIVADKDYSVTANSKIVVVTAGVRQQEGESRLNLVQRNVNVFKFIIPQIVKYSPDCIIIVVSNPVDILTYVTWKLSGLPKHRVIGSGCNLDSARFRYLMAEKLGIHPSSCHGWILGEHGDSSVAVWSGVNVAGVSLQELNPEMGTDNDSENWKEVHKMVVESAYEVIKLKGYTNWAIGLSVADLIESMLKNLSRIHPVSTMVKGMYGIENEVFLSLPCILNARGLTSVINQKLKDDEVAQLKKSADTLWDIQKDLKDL
UniProt Q9Y4Z0: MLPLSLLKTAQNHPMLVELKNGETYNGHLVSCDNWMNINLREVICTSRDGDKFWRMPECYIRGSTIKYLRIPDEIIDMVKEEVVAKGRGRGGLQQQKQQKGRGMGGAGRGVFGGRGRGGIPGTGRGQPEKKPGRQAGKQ
UniProt P09382, whole entry, looked up: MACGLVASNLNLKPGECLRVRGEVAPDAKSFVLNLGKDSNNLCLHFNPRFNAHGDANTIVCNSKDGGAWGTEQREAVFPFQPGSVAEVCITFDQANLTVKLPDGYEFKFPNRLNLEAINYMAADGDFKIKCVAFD
UniProt Q8ND56: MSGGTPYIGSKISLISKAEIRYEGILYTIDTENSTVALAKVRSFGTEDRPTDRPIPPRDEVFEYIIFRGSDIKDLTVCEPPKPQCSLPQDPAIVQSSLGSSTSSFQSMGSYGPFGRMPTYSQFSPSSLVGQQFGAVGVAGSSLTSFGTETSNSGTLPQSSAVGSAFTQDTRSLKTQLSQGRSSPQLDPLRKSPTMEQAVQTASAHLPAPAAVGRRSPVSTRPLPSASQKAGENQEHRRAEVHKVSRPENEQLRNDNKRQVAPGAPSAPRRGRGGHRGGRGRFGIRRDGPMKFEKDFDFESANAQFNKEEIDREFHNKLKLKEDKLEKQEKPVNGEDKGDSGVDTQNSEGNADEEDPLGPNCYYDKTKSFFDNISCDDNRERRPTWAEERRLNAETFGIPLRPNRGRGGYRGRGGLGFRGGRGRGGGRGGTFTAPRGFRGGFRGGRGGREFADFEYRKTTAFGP

Experiments:
Experiment in all cases: log2 fold change, soluble protein after heating vs DMSO (PISA); higher = thermal stabilisation; K562 lysate, 10 uM; active = over 0.2 and 3.5 SD of the protein, either way, in both replicates (recomputed)
[1] = compound: Cc1cn(-c2cc(NC(=O)c3ccc(C)c(Nc4nccc(-c5cccnc5)n4)c3)cc(C(F)(F)F)c2)cn1 [nilotinib]
Summary of the method: (§1)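 Thermal stability, expressed as log-two fold change relative to solvent controls, is given from duplicates. Crude K562 extract in PBS pH 7.4 with 1 mM MgCl2, at 1 mg/mL protein, was treated with 10 μM compound for 30 min and heated in aliquots for 3 min across 48°C-58°C. After pooling, adjustment to 0.5% NP-40 at 4°C and centrifugation at 21,000xg for 90 min, supernatant protein was measured by TMTpro 16plex LC-MS/MS with channel sums equalised.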

[2] = compound: Cc1nc(Nc2n[nH]c3c2CN(C(=O)N[C@H](CN(C)C)c2ccccc2)C3(C)C)c2sccc2n1
Summary of the method: as §1

[3] = compound: Cc1nc(Nc2ncc(C(=O)Nc3c(C)cccc3Cl)s2)cc(N2CCN(CCO)CC2)n1 [dasatinib]
Summary of the method: as §1

[4] = compound: Cc1ncc(-c2ccnc(Nc3ccc(S(C)(=O)=O)cc3)n2)n1C(C)C
Summary of the method: as §1

[5] = compound: Cn1cc(-c2ccc3c(c2)CCN3C(=O)Cc2cccc(C(F)(F)F)c2)c2c(N)ncnc21
Summary of the method: as §1

[6] = compound: Cn1cc(CNCC2CCN(c3ncc(C(=O)NO)cn3)CC2)c2ccccc21 [quisinostat]
Summary of the method: as §1

[7] = compound: Cn1cncc1[C@@](N)(c1ccc(Cl)cc1)c1ccc2c(c1)c(-c1cccc(Cl)c1)cc(=O)n2C [tipifarnib]
Summary of the method: as §1

[8] = compound: NC(=O)Nc1cc(-c2cccc(F)c2)sc1C(=O)N[C@H]1CCCNC1
Summary of the method: as §1

[9] = compound: NC(=O)c1cnc(N[C@@H]2CCCC[C@@H]2N)nc1Nc1cccc(-n2nccn2)c1
Summary of the method: as §1

[10] = compound: NC1(c2ccc(-c3nc4ccn5c(=O)[nH]nc5c4cc3-c3ccccc3)cc2)CCC1
Summary of the method: as §1

[11] = compound: NCC(=O)Nc1ccc(-n2nc(C(F)(F)F)cc2-c2ccc3c(ccc4ccccc43)c2)cc1
Summary of the method: as §1

[12] = compound: O=C(CCCCCCC(=O)Nc1ccccc1)NO [vorinostat]
Summary of the method: as §1

[13] = compound: O=C(O)c1ccc2c(c1)nc(Nc1cccc(Cl)c1)c1ccncc12 [silmitasertib]
Summary of the method: as §1

[14] = compound: O=C1NC(=O)C(c2cnc3ccccn23)=C1c1cn2c3c(cc(F)cc13)CN(C(=O)N1CCCCC1)CC2
Summary of the method: as §1

[15] = compound: c1cn2cc(-c3ccc4cn[nH]c4c3)nc(Nc3ccc(N4CCOCC4)cc3)c2n1 [entospletinib]
Summary of the method: as §1

Target | log2 fold change [1] | log2 fold change [2] | log2 fold change [3] | log2 fold change [4] | log2 fold change [5] | log2 fold change [6] | log2 fold change [7] | log2 fold change [8] | log2 fold change [9] | log2 fold change [10] | log2 fold change [11] | log2 fold change [12] | log2 fold change [13] | log2 fold change [14] | log2 fold change [15]
LRRC8A (UniProt Q8IWT6) | inactive: -0.01 | inactive: -0.039 | inactive: 0.07 | inactive: -0.058 | inactive: -0.021 | inactive: 0.047 | inactive: -0.022 | inactive: -0.032 | inactive: 0.001 | inactive: 0.004 | inactive: 0.024 | inactive: 0.085 | inactive: -0.099 | inactive: 0.072 | inactive: 0.049
LMBRD2 (UniProt Q68DH5) | inactive: -0.08 | inactive: -0.02 | inactive: 0.005 | inactive: 0.024 | inactive: 0.044 | inactive: -0.119 | inactive: -0.047 | inactive: 0.015 | inactive: 0 | inactive: -0.027 | inactive: 0.039 | inactive: 0.125 | inactive: 0.04 | inactive: -0.046 | inactive: -0.004
LSM7 (UniProt Q9UK45) | inactive: 0.008 | inactive: -0.005 | inactive: -0.009 | inactive: -0.012 | inactive: -0.034 | inactive: 0.011 | inactive: -0.013 | inactive: -0.016 | inactive: 0.006 | inactive: -0.014 | inactive: 0.019 | inactive: 0.092 | inactive: 0 | inactive: -0.019 | inactive: 0.001
LMTK2 (UniProt Q8IWU2) | inactive: 0.056 | inactive: 0.05 | inactive: -0.044 | inactive: 0.046 | inactive: 0.016 | inactive: -0.104 | inactive: -0.028 | inactive: 0.007 | inactive: -0.051 | inactive: 0.008 | inactive: 0.037 | inactive: 0.004 | inactive: 0.032 | inactive: 0.042 | inactive: -0.018
LTA4H (UniProt P09960) | inactive: 0.011 | inactive: 0 | inactive: 0.028 | inactive: -0.019 | inactive: 0.01 | inactive: 0.011 | inactive: 0.013 | inactive: 0 | inactive: -0.024 | inactive: 0.028 | inactive: -0.01 | inactive: 0.135 | inactive: -0.024 | inactive: -0.015 | inactive: 0.009
LSM12 (UniProt Q3MHD2) | inactive: -0.014 | inactive: 0.002 | inactive: -0.037 | inactive: 0.03 | inactive: -0.004 | inactive: -0.003 | inactive: -0.043 | inactive: -0.013 | inactive: 0.022 | inactive: -0.017 | inactive: 0.016 | inactive: 0.031 | inactive: -0.01 | inactive: -0.007 | inactive: -0.005
LSM1 (UniProt O15116) | inactive: 0.038 | inactive: 0.028 | inactive: 0.047 | inactive: -0.017 | inactive: -0.064 | inactive: 0.135 | inactive: 0.095 | inactive: -0.034 | inactive: -0.033 | inactive: 0.019 | inactive: -0.045 | inactive: 0.152 | inactive: -0.057 | inactive: -0.041 | inactive: -0.034
LIN37 (UniProt Q96GY3) | inactive: -0.071 | inactive: 0.045 | inactive: -0.024 | inactive: -0.037 | inactive: 0.029 | inactive: -0.141 | inactive: -0.076 | inactive: 0.031 | inactive: 0.041 | inactive: -0.086 | inactive: -0.2 | inactive: 0.064 | inactive: -0.042 | inactive: 0.031 | inactive: -0.059
LPIN1 isoform 7 (UniProt Q14693) | inactive: -0.032 | inactive: 0.026 | inactive: -0.107 | inactive: 0.182 | inactive: 0.028 | inactive: -0.032 | inactive: -0.104 | inactive: 0.035 | inactive: -0.04 | inactive: 0.003 | inactive: 0.052 | active: -0.489 | inactive: -0.014 | inactive: 0.004 | inactive: -0.193
LLGL1 (UniProt Q15334) | inactive: 0 | inactive: 0.149 | inactive: -0.011 | inactive: 0.052 | inactive: 0.016 | inactive: -0.046 | inactive: -0.077 | inactive: 0.159 | inactive: 0.053 | inactive: 0.075 | inactive: 0.078 | active: -0.524 | inactive: 0.077 | inactive: -0.046 | inactive: 0.042
LSG1 (UniProt Q9H089) | inactive: 0.003 | inactive: 0.015 | inactive: 0.102 | inactive: 0.026 | inactive: 0.137 | inactive: -0.091 | inactive: -0.004 | inactive: 0.115 | inactive: -0.014 | inactive: 0.032 | inactive: -0.074 | inactive: -0.052 | inactive: 0.043 | inactive: 0.096 | inactive: 0.139
LSM6 (UniProt P62312) | inactive: 0.067 | inactive: 0.006 | inactive: 0.029 | inactive: -0.015 | inactive: -0.014 | inactive: 0.113 | inactive: 0.031 | inactive: -0.041 | inactive: -0.054 | inactive: 0.05 | inactive: -0.061 | inactive: 0.138 | inactive: -0.024 | inactive: 0.025 | inactive: 0.029
LDHB (UniProt P07195) | inactive: 0.018 | inactive: -0.008 | inactive: 0.016 | inactive: 0.006 | inactive: -0.029 | inactive: -0.015 | inactive: 0.032 | inactive: 0.005 | inactive: -0.014 | inactive: 0.004 | inactive: 0.02 | inactive: 0.147 | inactive: -0.023 | inactive: 0.015 | inactive: 0.017
LSM4 (UniProt Q9Y4Z0) | inactive: 0.009 | inactive: -0.03 | inactive: 0.007 | inactive: 0 | inactive: 0.018 | inactive: 0 | inactive: -0.013 | inactive: -0.017 | inactive: -0.021 | inactive: -0.01 | inactive: 0.02 | inactive: 0.128 | inactive: -0.013 | inactive: 0.038 | inactive: 0.016
LGALS1 (UniProt P09382) | inactive: 0.037 | inactive: 0.033 | inactive: 0.002 | inactive: 0.073 | inactive: -0.028 | inactive: -0.001 | inactive: 0.024 | inactive: -0.034 | inactive: -0.015 | inactive: 0.002 | inactive: -0.089 | inactive: 0.124 | inactive: -0.029 | inactive: 0.036 | inactive: -0.01
LSM14A isoform 2 (UniProt Q8ND56) | inactive: 0.028 | inactive: 0.019 | inactive: -0.002 | inactive: -0.016 | inactive: -0.052 | inactive: -0.023 | inactive: -0.024 | inactive: -0.01 | inactive: -0.022 | inactive: 0.04 | inactive: -0.071 | inactive: -0.074 | inactive: -0.02 | inactive: -0.043 | inactive: -0.018
LRFN1 (UniProt Q9P244) | inactive: -0.048 | inactive: 0.139 | inactive: 0.02 | inactive: 0.01 | inactive: 0.053 | inactive: -0.064 | inactive: -0.063 | inactive: 0.067 | inactive: 0.021 | inactive: -0.069 | inactive: -0.07 | inactive: 0.173 | inactive: -0.122 | inactive: -0.015 | inactive: 0.046
LPIN3 isoform 2 (UniProt Q9BQK8) | inactive: -0.061 | inactive: 0.059 | inactive: -0.034 | inactive: 0.023 | inactive: 0.029 | inactive: -0.053 | inactive: -0.038 | inactive: 0.034 | inactive: -0.095 | inactive: 0.012 | inactive: 0.074 | inactive: -0.075 | inactive: 0.011 | inactive: 0.013 | inactive: 0.079
LRIG2 (UniProt O94898) | inactive: -0.041 | inactive: -0.006 | inactive: 0.017 | inactive: -0.106 | inactive: -0.061 | inactive: -0.088 | inactive: 0.001 | inactive: -0.007 | inactive: 0.026 | inactive: -0.084 | inactive: -0.161 | inactive: 0.044 | inactive: -0.181 | inactive: 0.014 | inactive: 0.012
LRRFIP2 (UniProt Q9Y608) | inactive: -0.004 | inactive: 0.017 | inactive: 0.033 | inactive: -0.029 | inactive: 0.025 | inactive: 0.11 | inactive: -0.012 | inactive: -0.074 | inactive: 0.024 | inactive: -0.014 | inactive: 0.009 | inactive: 0.06 | inactive: 0.019 | inactive: 0.051 | inactive: -0.019
LCP1 (UniProt P13796) | inactive: 0.009 | inactive: 0.016 | inactive: 0.002 | inactive: 0.035 | inactive: -0.015 | inactive: -0.025 | inactive: 0.007 | inactive: -0.017 | inactive: 0.001 | inactive: -0.005 | inactive: -0.003 | inactive: 0.111 | inactive: -0.018 | inactive: 0.005 | inactive: 0.006

An excerpt of these results, as a markdown table.

| Target | log2 fold change [1] | log2 fold change [2] | log2 fold change [3] | log2 fold change [4] | log2 fold change [5] | log2 fold change [6] | log2 fold change [7] | log2 fold change [8] | log2 fold change [9] | log2 fold change [10] | log2 fold change [11] | log2 fold change [12] | log2 fold change [13] | log2 fold change [14] | log2 fold change [15] |
| --- | --- | --- | --- | --- | --- | --- | --- | --- | --- | --- | --- | --- | --- | --- | --- |
| LSM14A isoform 2 (UniProt Q8ND56) | inactive: 0.028 | inactive: 0.019 | inactive: -0.002 | inactive: -0.016 | inactive: -0.052 | inactive: -0.023 | inactive: -0.024 | inactive: -0.01 | inactive: -0.022 | inactive: 0.04 | inactive: -0.071 | inactive: -0.074 | inactive: -0.02 | inactive: -0.043 | inactive: -0.018 |
| LRFN1 (UniProt Q9P244) | inactive: -0.048 | inactive: 0.139 | inactive: 0.02 | inactive: 0.01 | inactive: 0.053 | inactive: -0.064 | inactive: -0.063 | inactive: 0.067 | inactive: 0.021 | inactive: -0.069 | inactive: -0.07 | inactive: 0.173 | inactive: -0.122 | inactive: -0.015 | inactive: 0.046 |
| LPIN3 isoform 2 (UniProt Q9BQK8) | inactive: -0.061 | inactive: 0.059 | inactive: -0.034 | inactive: 0.023 | inactive: 0.029 | inactive: -0.053 | inactive: -0.038 | inactive: 0.034 | inactive: -0.095 | inactive: 0.012 | inactive: 0.074 | inactive: -0.075 | inactive: 0.011 | inactive: 0.013 | inactive: 0.079 |
| LRIG2 (UniProt O94898) | inactive: -0.041 | inactive: -0.006 | inactive: 0.017 | inactive: -0.106 | inactive: -0.061 | inactive: -0.088 | inactive: 0.001 | inactive: -0.007 | inactive: 0.026 | inactive: -0.084 | inactive: -0.161 | inactive: 0.044 | inactive: -0.181 | inactive: 0.014 | inactive: 0.012 |
| LRRFIP2 (UniProt Q9Y608) | inactive: -0.004 | inactive: 0.017 | inactive: 0.033 | inactive: -0.029 | inactive: 0.025 | inactive: 0.11 | inactive: -0.012 | inactive: -0.074 | inactive: 0.024 | inactive: -0.014 | inactive: 0.009 | inactive: 0.06 | inactive: 0.019 | inactive: 0.051 | inactive: -0.019 |
